Assay results reported in patent US20250277050A1.
No constants are given. Whether binding was seen depends on the method and setting. Some binding calls cover weakened binding; strength is not graded here.

Chains of the proteins cited; added tags and fusions are not shown. Residues count along the entry.
UniProt P28908, residues 19-379: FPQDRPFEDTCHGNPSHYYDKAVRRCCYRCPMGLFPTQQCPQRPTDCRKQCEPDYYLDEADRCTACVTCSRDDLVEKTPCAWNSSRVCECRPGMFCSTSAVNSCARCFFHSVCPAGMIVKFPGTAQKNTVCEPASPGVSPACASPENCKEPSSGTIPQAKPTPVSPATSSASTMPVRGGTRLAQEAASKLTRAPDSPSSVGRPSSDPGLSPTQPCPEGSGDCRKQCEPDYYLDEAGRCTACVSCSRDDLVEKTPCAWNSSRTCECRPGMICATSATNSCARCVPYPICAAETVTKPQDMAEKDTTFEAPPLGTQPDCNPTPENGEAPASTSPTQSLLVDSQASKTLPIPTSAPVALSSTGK

B1: 8D10 (antibody, V domains shown)
VH: QVQLQESGTELVKPGASVKLSCKASGYTFTSYWMHWMKQRPGQGLEWIGNINPSNGGTNYNEKFKNKATLTVDKSSSTAYMQLSSLTSEDSAVYYCARRDYYYGSSYGFDVWGTGTTVTVSS
VL: DIVMTQSPASQSASLGESVTITCLASQTIGTWLAWYQQKPGKSPQFLIYAATSLADGVPSRFSGSGSGTKFSFKISSLQAEDFVSYYCQQLYSTPFTFGGGTKLEIK
B2: 12B1 (antibody, V domains shown)
VH: EVKLEESGTELVKPGASVKLSCKASGYTFTSYWMHWVKQRPGQGLEWIGNINPTNGGTNYNEKFKSKATLTVDKSSRTAYMQLSSLTSGDSAVYYCARRDFITTSGFAYWGQGTLVTVSA
VL: DIVMTQTTASLSTSVGETVTITCRASGNLHSYLTWYQQKQGKSPQLLVYNAKTLADGVPSRFSGSGSGTQYSLKIDSLQPEDFGSYYCQHFWTTPFTFGSGTKLEIK
B3: 13H1 (antibody, V domains shown)
VH: QVQLQQSGTELVKPGASVKLSCKASGHTFTSYWMHWVKQRPGQGLEWIGNINPSNGGTNYNEKFKSKATLTVDKSSSTAYMQLSSLTSEDSAVYYCARRGYYGSSSYWSFDVWGTGTTVTVSS
VL: DIVMTQTPKSMSMSVGERVTLSCKASENVGTYVSWYQQKPEQSPKVLIYGASNRFTGVPDRFTGSGSATDFTLTISSVQTEDLADYHCGQSYSYPLTFGAGTKLELK
B4: 15B8 (antibody, V domains shown)
VH: QVQLEQSGTELVKPGASVKLSCKASGYTFTSYWMHWVKQRPGQGLEWIGNINPSNGGTNYNEKFKSKATLTVDKSSSTAYMQLSSLTSEDSAIYYCARRNNYYASSPFAYWGQGTLVSVSA
VL: DIVMTQTPASLSASVGETVTITCRASGNIHNYLAWYQQKQGKSPQLLVYNAKTLADGVPSRFSGSGSGTQYSLKINSLQPEDFGSYYCQHFWSTPFTFGSGTKLEIK

Target: recombinant CD30-GST fusion protein (human) (UniProt P28908)
Test: ELISA, plate coated with recombinant CD30-GST fusion protein

binding, binds:
B1, B2, B3, B4
